US20240400686A1
These are yes or no findings as the source states them, for the method shown. Binding calls can cover weak binding; strength is not graded here.

Target: human CD3 on cells (Jurkat cells; T cells of human PBMCs) (human)
Assay: flow cytometry, hybridoma culture supernatants on Jurkat cells

binding: binds
B1: antibody 3F11 (antibody, V domains shown)
VH: QVQLQQSGPDLVRPGASVKMSCKASGYTFTNYYVHWLNQRPGQGLEWIGWIYPGDGSTKFNEKFKGKTTLTADKSSSTAYILLSSLTSADSAIYFCTRDAGYYFDVWGAGTTVTVSS
VL: DIVMSQSPSSLAVSAGEKVTISCKSSQSLLNNRTRKNYLAWYQQKPGQSPKLLIYWASTRESGVPDRFTGSGSGTDFTLTISSVQAEDLAVYYCKQSYILRTFGGGTKLEIK
